Data on two molecules can be found in US20230338423A1 (published 2023).

Protein sequences, listed by entry. Tags and fused reporters are not part of them. Residues count along the entry.
UniProt P01589, residues 22-272: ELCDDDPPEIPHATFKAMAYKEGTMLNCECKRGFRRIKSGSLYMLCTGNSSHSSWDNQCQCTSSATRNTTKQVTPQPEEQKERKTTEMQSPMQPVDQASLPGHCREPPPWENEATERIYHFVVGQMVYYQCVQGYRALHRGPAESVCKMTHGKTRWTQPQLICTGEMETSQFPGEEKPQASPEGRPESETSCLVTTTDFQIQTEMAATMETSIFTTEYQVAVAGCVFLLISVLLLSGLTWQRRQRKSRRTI

Results are given in words; binding and its absence hold for the method and conditions named. Binding seen in cells or lysates may run through a third protein. Some binding calls cover weakened binding; strength is not graded here. Sequences can lack the tags named with a protein.

Test [1] has as its target T1, mouse IL-2Rα (endogenous, OT-I CD8+ T cells) (mouse) (UniProt P01590).
T1 sequence (looked up): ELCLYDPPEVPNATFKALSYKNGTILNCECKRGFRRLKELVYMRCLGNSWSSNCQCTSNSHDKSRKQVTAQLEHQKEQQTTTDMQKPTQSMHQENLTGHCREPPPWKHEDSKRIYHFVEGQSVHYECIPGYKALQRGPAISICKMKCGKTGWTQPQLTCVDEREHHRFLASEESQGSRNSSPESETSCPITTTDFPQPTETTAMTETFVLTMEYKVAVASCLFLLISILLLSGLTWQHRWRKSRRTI
The test is described as follows: anti-V5 co-immunoprecipitation and immunoblot, OT-I T cells. In general terms: In western blotting, separated proteins are transferred to a membrane and probed.

For test [2], the target named is T1, mouse IL-2Rα (endogenous, OT-I CD8+ T cells) (mouse). The test is described as follows: anti-V5 immunoprecipitation and LC-MS/MS (peptides and PSMs), OT-I T cells.
Test [3] concerns the target Flag-IL-2Rα (human IL2RA in p3×Flag-CMV-7.1) (human) (UniProt P01589). In words: figure legend heading for the co-immunoprecipitation experiments of FIGS. 4A-4K.
Test [4] has the same target. The test is described as follows: co-immunoprecipitation (anti-V5 or anti-Flag) and immunoblot, co-transfected 293T cells.

B1: V5-tagged mouse Susd2 (receptor, not shown: small tags and cut ends)
chain: AGAQGSCSLRCGAQDGLCSCHPTCSGLGTCCEDFLDYCLEILPSSGSMMGGKDFVVQHLKWTDPTDGVICRFKESIQTLGYVDDFYQVHCISPLLYESGYIPFTISMDNGRSFPHAGTWLAAHPYKVSESEKSQLVNETHWQYYGTSDTRGNLNLTWDTSALPTPAVTIELWGYEETGKPYSGNWTSKWSYLYPLATNIPNTGFFTFTPKPASPQYQRWKVGALRISSSRNYPGEKDVRALWTNDHALAWHLGDDFRADSVAWARAQCLAWEALEDQLPNFLTELPDCPCTLAQARADSGRFFTDYGCDIEHGSVCTYHPGAVHCVRSVQASPRYGSGQQCCYTAAGTQLLTSDSTSGSTPDRGHDWGAPPYRTPPRVPGMSHWLYDVISFYYCCLWAPECPRYMKRRPSSDCRNYRPPRLASAFGDPHFVTFDGTSFSFSGNGEYVLLETTLSDLRVQGRAQPGRMPNGTQARGTGLTAVAVQEDNSDVIEVRLAGGSRVLEVLLNQKVLSFTEQNWMDLKGMFLSVAAQDKVSIMLSSGAGLEVGVQGPFLSVSILLPEKFLTHTRGLLGTLNNNPRDDFTLRNGQVLPLNASAQQVFQFGADWAVSNTSSLFTYDSWLLVYQFVYGPKHNPNFKPLFPDETTLSPSQTEDVARLCEGDRFCILDVMSTGSSSVGNATRIAHQLHQHRLKSLQPVVSCGWLPPPANGHKEGLRYLEGSVVRFSCNNGYSLVGPESSTCQADGKWSMPTPECQPGRSYTVLLSIIFGGLAIVALISIIYMMLHRRRKSNMTMWSSQP
As to B1, the binding entry in test [1] and in test [2] was “binds” each time.

B2: V5-SUSD2 (human SUSD2, V5-tagged) (receptor, not shown: small tags and cut ends)
chain: QESCSMRCGALDGPCSCHPTCSGLGTCCLDFRDFCLEILPYSGSMMGGKDFVVRHFKMSSPTDASVICRFKDSIQTLGHVDSSGQVHCVSPLLYESGRIPFTVSLDNGHSFPRAGTWLAVHPNKVSMMEKSELVNETRWQYYGTANTSGNLSLTWHVKSLPTQTITIELWGYEETGMPYSQEWTAKWSYLYPLATHIPNSGSFTFTPKPAPPSYQRWRVGALRIIDSKNYAGQKDVQALWTNDHALAWHLSDDFREDPVAWARTQCQAWEELEDQLPNFLEELPDCPCTLTQARADSGRFFTDYGCDMEQGSVCTYHPGAVHCVRSVQASLRYGSGQQCCYTADGTQLLTADSSGGSTPDRGHDWGAPPFRTPPRVPSMSHWLYDVLSFYYCCLWAPDCPRYMQRRPSNDCRNYRPPRLASAFGDPHFVTFDGTNFTFNGRGEYVLLEAALTDLRVQARAQPGTMSNGTETRGTGLTAVAVQEGNSDVVEVRLANRTGGLEVLLNQEVLSFTEQSWMDLKGMFLSVAAGDRVSIMLASGAGLEVSVQGPFLSVSVLLPEKFLTHTHGLLGTLNNDPTDDFTLHSGRVLPPGTSPQELFLFGANWTVHNASSLLTYDSWFLVHNFLYQPKHDPTFEPLFPSETTLNPSLAQEAAKLCGDDHFCNFDVAATGSLSTGTATRVAHQLHQRRMQSLQPVVSCGWLAPPPNGQKEGNRYLAGSTIYFHCDNGYSLAGAETSTCQADGTWSSPTPKCQPGRSYAVLLGIIFGGLAVVAAVALVYVLLRRRKGNTHVWGAQP
Consider B2, for which the binding entry in test [3] and in test [4] was “binds” throughout.
